The target in data set [1] is Soybean agglutinin (SBA) (soybean) (UniProt P05046). Briefly: GO fluorescence assay. Particulars: specificity test; commercial protein; label: 5'-FAM; single-stranded DNA.
Data set [2] deals with T1, Bowman-Birk inhibitor (BBI) (UniProt P01055).
T1 sequence (looked up, limits assumed): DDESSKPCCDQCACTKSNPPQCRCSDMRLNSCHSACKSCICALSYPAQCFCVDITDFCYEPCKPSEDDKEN
Briefly: GO fluorescence assay. Particulars: specificity test; commercial protein; label: 5'-FAM; single-stranded DNA.

Chains of the proteins cited; added tags and fusions are not shown. Residues count along the entry.
UniProt P05046, 33-285: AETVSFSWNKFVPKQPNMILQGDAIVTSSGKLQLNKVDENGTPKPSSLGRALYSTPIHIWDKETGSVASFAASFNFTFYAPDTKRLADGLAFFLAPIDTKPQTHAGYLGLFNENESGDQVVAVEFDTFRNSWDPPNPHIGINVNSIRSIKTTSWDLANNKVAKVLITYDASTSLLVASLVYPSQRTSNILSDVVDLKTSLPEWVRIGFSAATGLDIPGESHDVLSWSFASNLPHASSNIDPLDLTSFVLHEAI

Construct, isoform or probe ends are uncertain for at least one entry. The comparison behind a weaker result is the experiment's own reference, which may not be listed here. At least one verdict rests on a figure or table, not on a statement of the authors. For some assays here: Where a protein sequence is shown, tags need not be part of it.

Consider “CTTCGTATCCTGTGCTGCAGTTGTTTTTAAGTGCTGGGAG [Akti-5]”, for which the binding result in data set [1] and in data set [2] was “binds more weakly” each time.
